Measurements reported in PubChem BioAssay AID1224830 (NIAID, 2016)
Aim: 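Genes whose knock-down alters the TNF-alpha reporter response to LPS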 (primary screen). Cells: human THP-1 monocytic leukaemia cells, TNF dual-luciferase reporter clone, PMA-differentiated to macrophage-like cells. Reagent: siRNA pool against human genes, 50 nM. Duration: LPS for 4 h, given about 3 days after siRNA transfection. Treatment: bacterial LPS (TLR4 ligand), 10 ng/ml. Measurement: 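Ratio of firefly to renilla light, scaled to the plate median and expressed as a robust z-score per replicate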. Reading the numbers: TNF reporter robust z-score: higher = stronger TNF reporter response to LPS. Active means: 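a well is active when its z-score exceeds 2.8 or falls below -1.5; control wells carry no call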.
The whole screen tested about 18,000 reagents; this is a part drawn at random. Of all reagents, about 2,900 (16%) got an active call. 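Calls are made per well; low scores hint the gene aids the LPS response, high scores that it dampens it.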 Unmarked entries are inactive. Repeated entries: four replicate wells of each siRNA pool.

For NUS1 (GeneID 116150), the values are TNF reporter robust z-score 0.57.
For NUS1 (GeneID 116150) the deposit lists TNF reporter robust z-score -0.88.
With knock-down of NUS1 (GeneID 116150), the record shows TNF reporter robust z-score -1.01.
With knock-down of NUS1 (GeneID 116150) the results were TNF reporter robust z-score 0.01.
Knock-down of SBNO1 (GeneID 55206) resulted in: TNF reporter robust z-score 0.49.
For SBNO1 (GeneID 55206), the entry reads TNF reporter robust z-score -1.17.
SBNO1 (GeneID 55206) gave TNF reporter robust z-score -0.92.
Depletion of SBNO1 (GeneID 55206) gave: TNF reporter robust z-score -0.59.
Against ZNF615 (GeneID 284370), the values are TNF reporter robust z-score 0.89.
Against ZNF615 (GeneID 284370), the entry reads TNF reporter robust z-score 0.73.
Knock-down of ZNF615 (GeneID 284370) came out at: TNF reporter robust z-score 0.9.
Knock-down of ZNF615 (GeneID 284370) came out at: TNF reporter robust z-score 2.8 (active).
MRPL49 (GeneID 740) scored TNF reporter robust z-score 2.22.
Depletion of MRPL49 (GeneID 740) came out at: TNF reporter robust z-score 1.43.
Against MRPL49 (GeneID 740), the values are TNF reporter robust z-score 1.44.
With knock-down of MRPL49 (GeneID 740), the record shows TNF reporter robust z-score 1.77.
For PSG3 (GeneID 5671) the deposit lists TNF reporter robust z-score 0.56.
Against PSG3 (GeneID 5671), the values are TNF reporter robust z-score 0.02.
PSG3 (GeneID 5671) gave TNF reporter robust z-score -0.51.
PSG3 (GeneID 5671) scored TNF reporter robust z-score 0.55.

5 successive entries from above, quoted:
ZNF615 (GeneID 284370) | TNF reporter robust z-score = 0.89
ZNF615 (GeneID 284370) | TNF reporter robust z-score = 0.73
ZNF615 (GeneID 284370) | TNF reporter robust z-score = 0.9
ZNF615 (GeneID 284370) | TNF reporter robust z-score = 2.8 (active)
MRPL49 (GeneID 740) | TNF reporter robust z-score = 2.22

The listing continues:
ACOT13 (GeneID 55856) gave TNF reporter robust z-score 1.35.
After knock-down of ACOT13 (GeneID 55856), the screen gave TNF reporter robust z-score 0.95.
With knock-down of ACOT13 (GeneID 55856) the results were TNF reporter robust z-score 0.62.
Against ACOT13 (GeneID 55856), the values are TNF reporter robust z-score 0.07.
Against WNT9B (GeneID 7484) the deposit lists TNF reporter robust z-score -0.86.
WNT9B (GeneID 7484) scored TNF reporter robust z-score 0.13.
Silencing of WNT9B (GeneID 7484) gave: TNF reporter robust z-score 0.08.
Silencing of WNT9B (GeneID 7484) gave: TNF reporter robust z-score 1.24.
After knock-down of QTRT1 (GeneID 81890), the screen gave TNF reporter robust z-score -1.08.
Depletion of QTRT1 (GeneID 81890) came out at: TNF reporter robust z-score -0.27.
Against QTRT1 (GeneID 81890), the entry reads TNF reporter robust z-score -0.58.
With knock-down of QTRT1 (GeneID 81890), the screen gave TNF reporter robust z-score -0.14.
